Taken from: PubChem BioAssay AID1224828 (NIAID, 2016)
This is an unselected part of about 17,000 reagents. Over the whole deposit, 762 (4.5%) got an active call. 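Active calls include both raised and lowered p65 entry, mostly lowered; wells with fewer than 50 cells lack a z-score.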 Raw values vary from plate to plate and are shown uncorrected. A number with no mark means an inactive call. Reagents against one gene are numbered here. Reagent sequences are not shown.

- Purpose: 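Find genes required for NF-kappaB p65 moving into the nucleus after LPS in mouse macrophages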 (primary screen)
- System: mouse RAW264.7 G9 macrophage reporter cells (GFP-p65, Tnf promoter-mCherry)
- Knock-down reagent: siRNA pool against mouse genes, 100 nM
- Time to read-out: 2 days siRNA transfection, then 40 min LPS before fixation
- Treatment: LPS (Salmonella minnesota R595) at 10 ng/ml
- Measurement: 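Microscopy ratio of nuclear to perinuclear-ring GFP-p65 signal, scaled to the plate median; gene score is the average of two replicate robust z-scores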
- Direction: p65 translocation robust z-score: higher = more nuclear NF-kappaB p65 after LPS than the plate median; nuclear/cytoplasmic p65 ratio: higher = more nuclear NF-kappaB p65
- Hit rule: 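Active if robust z is above 3.3 (negative regulators) or below -1.56, the Tlr4 control median (positive regulators); activity score 50 or more; control wells not called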
- Calls: active = hit (p65 shift raised or lowered); inactive = no clear change

Tpo (thyroid peroxidase) scored p65 translocation robust z-score -0.2; nuclear/cytoplasmic p65 ratio, rep 1 = 1.45; nuclear/cytoplasmic p65 ratio, rep 2 = 1.51; low cell count flag enough cells to score.
Bin1 (bridging integrator 1) scored p65 translocation robust z-score -0.15; nuclear/cytoplasmic p65 ratio, rep 1 = 1.55; nuclear/cytoplasmic p65 ratio, rep 2 = 1.63; low cell count flag enough cells to score.
Against Wdr76 (WD repeat domain 76), the values are p65 translocation robust z-score -0.08; nuclear/cytoplasmic p65 ratio, rep 1 = 1.58; nuclear/cytoplasmic p65 ratio, rep 2 = 1.62; low cell count flag enough cells to score.
Depletion of Tas1r1 (taste receptor, type 1, member 1) came out at: p65 translocation robust z-score 0.53; nuclear/cytoplasmic p65 ratio, rep 1 = 1.59; nuclear/cytoplasmic p65 ratio, rep 2 = 1.66; low cell count flag enough cells to score.
Paip2b (poly(A) binding protein interacting protein 2B) showed p65 translocation robust z-score 0.25; nuclear/cytoplasmic p65 ratio, rep 1 = 1.62; nuclear/cytoplasmic p65 ratio, rep 2 = 1.88; low cell count flag enough cells to score.
Silencing of Pcdhb20 (protocadherin beta 20) resulted in: p65 translocation robust z-score -0.5; nuclear/cytoplasmic p65 ratio, rep 1 = 1.37; nuclear/cytoplasmic p65 ratio, rep 2 = 1.36; low cell count flag enough cells to score.
Depletion of Jmjd6 (jumonji domain containing 6) gave: p65 translocation robust z-score -0.51; nuclear/cytoplasmic p65 ratio, rep 1 = 1.41; nuclear/cytoplasmic p65 ratio, rep 2 = 1.35; low cell count flag enough cells to score.
Rfxap (regulatory factor X-associated protein) gave p65 translocation robust z-score -1.43; nuclear/cytoplasmic p65 ratio, rep 1 = 1.19; nuclear/cytoplasmic p65 ratio, rep 2 = 1.31; low cell count flag enough cells to score.
With knock-down of Cnot6l (CCR4-NOT transcription complex, subunit 6-like) the results were p65 translocation robust z-score -0.61; nuclear/cytoplasmic p65 ratio, rep 1 = 1.5; nuclear/cytoplasmic p65 ratio, rep 2 = 1.55; low cell count flag enough cells to score.
With knock-down of Myh2 (myosin, heavy polypeptide 2, skeletal muscle, adult), the screen gave p65 translocation robust z-score -0.05; nuclear/cytoplasmic p65 ratio, rep 1 = 1.4; nuclear/cytoplasmic p65 ratio, rep 2 = 1.37; low cell count flag enough cells to score.
For Fam135b (family with sequence similarity 135, member B) #1 the deposit lists p65 translocation robust z-score 1.62; nuclear/cytoplasmic p65 ratio, rep 1 = 1.54; nuclear/cytoplasmic p65 ratio, rep 2 = 1.69; low cell count flag enough cells to score.
Depletion of Fam135b (family with sequence similarity 135, member B) #2 resulted in: p65 translocation robust z-score 0.01; nuclear/cytoplasmic p65 ratio, rep 1 = 1.37; nuclear/cytoplasmic p65 ratio, rep 2 = 1.53; low cell count flag enough cells to score.
After knock-down of Dipk1b (divergent protein kinase domain 1B), the screen gave p65 translocation robust z-score 1.39; nuclear/cytoplasmic p65 ratio, rep 1 = 1.73; nuclear/cytoplasmic p65 ratio, rep 2 = 1.42; low cell count flag enough cells to score.

Already shown: entries from further up.
Jmjd6 (jumonji domain containing 6): p65 translocation robust z-score = -0.51; nuclear/cytoplasmic p65 ratio, rep 1 = 1.41; nuclear/cytoplasmic p65 ratio, rep 2 = 1.35; low cell count flag = enough cells to score
Rfxap (regulatory factor X-associated protein): p65 translocation robust z-score = -1.43; nuclear/cytoplasmic p65 ratio, rep 1 = 1.19; nuclear/cytoplasmic p65 ratio, rep 2 = 1.31; low cell count flag = enough cells to score

The listing continues:
With knock-down of Map7d1 (MAP7 domain containing 1) the results were p65 translocation robust z-score -1.02; nuclear/cytoplasmic p65 ratio, rep 1 = 1.36; nuclear/cytoplasmic p65 ratio, rep 2 = 1.75; low cell count flag enough cells to score.
Tiparp (TCDD-inducible poly(ADP-ribose) polymerase) showed p65 translocation robust z-score 0.36; nuclear/cytoplasmic p65 ratio, rep 1 = 1.51; nuclear/cytoplasmic p65 ratio, rep 2 = 1.62; low cell count flag enough cells to score.
Trmt10b (tRNA methyltransferase 10B) gave nuclear/cytoplasmic p65 ratio, rep 1 = 1.52; nuclear/cytoplasmic p65 ratio, rep 2 = 1.41; low cell count flag fewer than 50 cells per well; well left out of scoring.
For Camk1g (calcium/calmodulin-dependent protein kinase I gamma), the values are p65 translocation robust z-score 0.31; nuclear/cytoplasmic p65 ratio, rep 1 = 1.75; nuclear/cytoplasmic p65 ratio, rep 2 = 1.42; low cell count flag enough cells to score.
With knock-down of Kiss1r (KISS1 receptor), the record shows p65 translocation robust z-score -1.42; nuclear/cytoplasmic p65 ratio, rep 1 = 1.3; nuclear/cytoplasmic p65 ratio, rep 2 = 1.38; low cell count flag enough cells to score.
Depletion of Cdx2 (caudal type homeobox 2) resulted in: p65 translocation robust z-score -0.36; nuclear/cytoplasmic p65 ratio, rep 1 = 1.47; nuclear/cytoplasmic p65 ratio, rep 2 = 1.33; low cell count flag enough cells to score.
Knock-down of Nfkbia resulted in: p65 translocation robust z-score -2.03 (active); nuclear/cytoplasmic p65 ratio, rep 1 = 1.13; nuclear/cytoplasmic p65 ratio, rep 2 = 1.19; low cell count flag enough cells to score.
After knock-down of Colec12 (collectin sub-family member 12), the screen gave p65 translocation robust z-score -0.12; nuclear/cytoplasmic p65 ratio, rep 1 = 1.53; nuclear/cytoplasmic p65 ratio, rep 2 = 1.8; low cell count flag enough cells to score.
